# According to patent US7435548B2, “Methods for producing ex vivo models for inflammatory disease and uses thereof” (deCODE genetics ehf., priority 2001, dated 2008):
# At least one compound was matched to its structure with a doubt left.
# Test system: airway smooth muscle (ASM) tissues
# Assay: ASM constrictor responses to acetylcholine (organ bath, isometric tension)
# Format: tissue-based, New Zealand White rabbits
# Settings: for effect on IL-1β/TNFα induced heightened constrictor responses to ACh: DEX 10^−5M pretreatment of cytokine-exposed tissues
smiles,measurement,setting,value
"C[C@@H]1C[C@H]2[C@@H]3CCC4=CC(=O)C=C[C@]4(C)[C@@]3(F)[C@@H](O)C[C@]2(C)[C@@]1(O)C(=O)CO [DEX, dexamethasone]",effect on constrictor responses to ACh in control tissues,"DEX 10^−5M alone, listed as dexamethasone",no effects
same,effect on IL-1β/TNFα induced heightened constrictor responses to ACh,,abrogated
same,effect on IL-1β/TNFα induced heightened constrictor responses to ACh,listed as dexamethasone,largely prevented
